Taken from: PubChem BioAssay AID1159584 (Peter MacCallum Cancer Centre, 2016)
This is one part, drawn at random, of about 18,000 reagents tested. Not given: the amount of reagent, the time to read-out.

Aim: 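Genes whose loss is lethal only together with E-cadherin loss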 (primary screen)
Cell system: human MCF10A breast epithelial cells, parental and CDH1-null
Reagents: siRNA against human genes
Measured: 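Cell viability by CellTiter-Glo ATP luminescence, each line scaled to the mean of mock wells across plates, then CDH1-null over parental ratio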
Direction: CDH1-null / parental viability ratio: higher = CDH1-null cells survive relatively better than parental; CDH1-null viability vs mock: higher = more viable CDH1-null cells; parental viability vs mock: higher = more viable parental cells

| target gene | CDH1-null / parental viability ratio | CDH1-null viability vs mock (fraction of mock) | parental viability vs mock (fraction of mock) |
| --- | --- | --- | --- |
| PA2G4 | 0.98 | 0.62 | 0.63 |
| ANKRD33 | 0.9 | 0.72 | 0.8 |
| CHRM4 | 1.25 | 0.94 | 0.75 |
| KDM5B | 1 | 0.98 | 0.98 |
| TCN2 | 1.01 | 0.81 | 0.8 |
| TSHZ2 | 1.03 | 0.64 | 0.62 |
| RETNLB | 1.04 | 0.95 | 0.91 |
| DCTN6 | 1.21 | 0.63 | 0.52 |
| SPATA21 | 0.87 | 0.67 | 0.77 |
| MS4A6E | 0.84 | 0.84 | 1 |
| CABCOCO1 | 1.1 | 0.78 | 0.71 |
| KRTAP4-1 | 1.12 | 0.67 | 0.6 |
| SDHA | 1.03 | 0.81 | 0.79 |
| SBDS | 1.14 | 0.98 | 0.86 |
| ABCB6 | 0.8 | 0.6 | 0.75 |
| ZNF765 | 1.17 | 0.94 | 0.8 |
| POU3F1 | 1.08 | 0.52 | 0.48 |
| TBX3 | 1.03 | 0.91 | 0.88 |
| THADA | 1.11 | 1.13 | 1.02 |
| MYO3B | 0.89 | 0.74 | 0.83 |
| VCY | 1.19 | 1.02 | 0.86 |
| KNOP1 | 1.14 | 0.84 | 0.74 |
| ARHGAP35 | 1.11 | 1.15 | 1.04 |
| ZNF670 | 0.97 | 0.97 | 1 |
| MARF1 | 0.9 | 0.96 | 1.07 |
| TNFSF8 | 1.28 | 0.77 | 0.6 |
| SLC43A2 | 1.09 | 0.62 | 0.57 |
| PC | 1.1 | 0.89 | 0.81 |
| PTS | 0.9 | 0.92 | 1.02 |
| YWHAQ | 1.15 | 0.84 | 0.73 |
| CCN5 | 1.1 | 0.88 | 0.8 |
| UFC1 | 0.91 | 0.93 | 1.02 |
| LDLRAD1 | 0.85 | 0.78 | 0.92 |
| BOLA3 | 0.86 | 0.94 | 1.09 |
| CCDC63 | 0.94 | 0.78 | 0.83 |

5 entries from above, sorted by “CDH1-null viability vs mock (fraction of mock)”, ascending.
| target gene | CDH1-null / parental viability ratio | CDH1-null viability vs mock (fraction of mock) | parental viability vs mock (fraction of mock) |
| --- | --- | --- | --- |
| ABCB6 | 0.8 | 0.6 | 0.75 |
| KRTAP4-1 | 1.12 | 0.67 | 0.6 |
| CABCOCO1 | 1.1 | 0.78 | 0.71 |
| SDHA | 1.03 | 0.81 | 0.79 |
| SBDS | 1.14 | 0.98 | 0.86 |

More reagents follow.
| target gene | CDH1-null / parental viability ratio | CDH1-null viability vs mock (fraction of mock) | parental viability vs mock (fraction of mock) |
| --- | --- | --- | --- |
| BLVRA | 0.91 | 0.94 | 1.03 |
| CACNG5 | 1.39 | 1.14 | 0.82 |
| EMX2 | 0.77 | 0.54 | 0.7 |
| RHCE | 0.93 | 0.78 | 0.84 |
| PTPN18 | 1.14 | 0.74 | 0.65 |
| CSTPP1 | 0.9 | 0.72 | 0.8 |
| ALDH9A1 | 0.92 | 0.78 | 0.85 |
| GSTO2 | 1.08 | 0.8 | 0.74 |
| TLCD3A | 1.27 | 0.94 | 0.74 |
| MTMR1 | 1.23 | 0.9 | 0.73 |
| CNOT6 | 1.32 | 0.5 | 0.38 |
| ZC3H13 | 1.01 | 0.81 | 0.8 |
| BTNL8 | 0.9 | 0.7 | 0.78 |
| MED27 | 0.92 | 0.88 | 0.96 |
| ASCL4 | 1.24 | 0.89 | 0.72 |
| BPY2C | 1.1 | 0.78 | 0.71 |
| CXADR | 0.83 | 0.92 | 1.11 |
| GPC5 | 0.99 | 0.94 | 0.95 |
| LINC02870 | 1.24 | 0.57 | 0.46 |
| LDB3 | 1.21 | 0.29 | 0.24 |
| ST8SIA1 | 1.28 | 0.82 | 0.64 |
| MOB4 | 0.85 | 0.68 | 0.8 |
| MAPRE3 | 0.8 | 0.86 | 1.08 |
| PDE10A | 0.98 | 0.96 | 0.98 |
| PPARGC1B | 0.89 | 0.66 | 0.74 |
| DEFA6 | 1.2 | 0.98 | 0.82 |
| ARF6 | 0.85 | 0.88 | 1.04 |
| SLC6A9 | 1.12 | 0.96 | 0.86 |
| MARVELD3 | 1.35 | 0.84 | 0.62 |
| UQCRQ | 0.67 | 0.42 | 0.63 |
| SLC4A5 | 1.07 | 0.9 | 0.84 |
| SLCO1A2 | 1.03 | 0.81 | 0.79 |
| CHRNB4 | 1.19 | 0.94 | 0.79 |
